Experimental data reported in patent publication US20120208861A1.
Results are given in words; binding and its absence hold for the method and conditions named. Binding seen in cells or lysates may run through a third protein. Some results given as binding are weak or reduced against the parent protein; the word gives no strength. Sequences can lack the tags named with a protein.

By UniProt entry, the sequences of proteins in these tests, tags left out. Where a name states a change or a piece, a line headed by the entry shows the natural chain unless it says otherwise.
UniProt O35906: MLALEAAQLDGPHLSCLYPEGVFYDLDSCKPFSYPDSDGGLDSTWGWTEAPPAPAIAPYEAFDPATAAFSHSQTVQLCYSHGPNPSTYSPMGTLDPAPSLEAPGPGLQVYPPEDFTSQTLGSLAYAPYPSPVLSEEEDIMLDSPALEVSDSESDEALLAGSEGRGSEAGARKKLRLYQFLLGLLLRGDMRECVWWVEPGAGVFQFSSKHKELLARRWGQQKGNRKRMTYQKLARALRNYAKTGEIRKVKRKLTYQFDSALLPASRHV

What was measured:
[1] = target: T1, FLAG-tagged mouse IRF-7 (mouse) (UniProt P70434); assay: co-immunoprecipitation in both directions (anti-HA and anti-FLAG) from 293T cell extract, immunoblot
T1 sequence: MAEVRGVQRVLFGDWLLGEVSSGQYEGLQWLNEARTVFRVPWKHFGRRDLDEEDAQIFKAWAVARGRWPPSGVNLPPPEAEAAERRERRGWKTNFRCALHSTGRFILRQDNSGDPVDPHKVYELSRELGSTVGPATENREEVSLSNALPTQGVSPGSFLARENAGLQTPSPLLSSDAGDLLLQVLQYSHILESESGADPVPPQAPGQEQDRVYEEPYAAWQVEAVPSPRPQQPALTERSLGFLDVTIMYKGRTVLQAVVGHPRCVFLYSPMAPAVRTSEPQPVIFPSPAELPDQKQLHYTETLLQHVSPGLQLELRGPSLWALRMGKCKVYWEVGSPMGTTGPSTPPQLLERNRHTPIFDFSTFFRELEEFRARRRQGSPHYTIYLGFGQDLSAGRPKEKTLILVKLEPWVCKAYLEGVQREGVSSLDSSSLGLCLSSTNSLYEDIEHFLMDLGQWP

[2] = target: T1, FLAG-tagged mouse IRF-7 (mouse); assay: co-immunoprecipitation from 293 cell extract, SDS-PAGE and immunoblotting

“HA-tagged mouse Spi-B (from UniProt O35906 1-267)” was tested, and the binding [1] was “binds” and the binding [2] was “binds”.
